Source: publication PMC4359378
No constants are given. Whether binding was seen depends on the method and setting. Binding seen in cells or lysates may run through a third protein. A yes stands for co-enrichment or nearness to the bait. Other partners may have been found. Sequences can lack the tags named with a protein.

Chains of the proteins cited; added tags and fusions are not shown.
UniProt P28033: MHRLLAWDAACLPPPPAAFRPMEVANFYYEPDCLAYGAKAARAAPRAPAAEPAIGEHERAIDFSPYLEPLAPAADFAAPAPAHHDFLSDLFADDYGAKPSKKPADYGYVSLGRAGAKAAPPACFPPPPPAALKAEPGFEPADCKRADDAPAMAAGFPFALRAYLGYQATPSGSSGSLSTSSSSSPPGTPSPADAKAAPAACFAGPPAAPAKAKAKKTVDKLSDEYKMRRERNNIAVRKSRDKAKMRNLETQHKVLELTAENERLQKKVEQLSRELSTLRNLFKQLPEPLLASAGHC
UniProt P56546: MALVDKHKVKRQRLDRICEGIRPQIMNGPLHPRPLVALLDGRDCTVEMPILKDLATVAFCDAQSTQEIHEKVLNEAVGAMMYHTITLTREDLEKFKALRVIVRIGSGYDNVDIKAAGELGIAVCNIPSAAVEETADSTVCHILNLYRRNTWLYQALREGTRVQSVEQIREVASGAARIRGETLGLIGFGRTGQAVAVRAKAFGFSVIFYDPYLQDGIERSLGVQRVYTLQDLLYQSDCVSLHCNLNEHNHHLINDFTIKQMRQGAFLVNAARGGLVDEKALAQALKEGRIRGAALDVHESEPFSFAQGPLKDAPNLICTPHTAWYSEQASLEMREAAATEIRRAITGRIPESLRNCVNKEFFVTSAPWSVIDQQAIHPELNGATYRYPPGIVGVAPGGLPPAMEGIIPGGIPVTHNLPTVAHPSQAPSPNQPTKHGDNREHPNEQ
UniProt Q08775: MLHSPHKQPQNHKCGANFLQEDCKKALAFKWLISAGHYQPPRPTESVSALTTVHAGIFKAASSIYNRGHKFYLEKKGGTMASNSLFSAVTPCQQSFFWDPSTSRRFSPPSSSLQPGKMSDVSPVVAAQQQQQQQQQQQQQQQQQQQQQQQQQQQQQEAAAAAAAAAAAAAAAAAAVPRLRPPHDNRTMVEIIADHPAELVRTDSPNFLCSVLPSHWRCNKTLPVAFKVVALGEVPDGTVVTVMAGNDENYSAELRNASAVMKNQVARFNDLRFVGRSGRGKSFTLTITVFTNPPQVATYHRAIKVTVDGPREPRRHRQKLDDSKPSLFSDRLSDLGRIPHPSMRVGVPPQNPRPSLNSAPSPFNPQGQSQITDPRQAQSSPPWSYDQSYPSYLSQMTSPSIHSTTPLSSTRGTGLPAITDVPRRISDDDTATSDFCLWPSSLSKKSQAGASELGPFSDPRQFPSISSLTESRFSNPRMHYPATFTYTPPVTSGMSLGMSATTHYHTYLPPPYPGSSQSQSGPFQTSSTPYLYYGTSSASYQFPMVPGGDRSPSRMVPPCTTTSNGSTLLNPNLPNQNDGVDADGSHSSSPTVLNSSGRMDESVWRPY

T1: ZEB1-HA (mouse) (UniProt Q64318)
T1 sequence: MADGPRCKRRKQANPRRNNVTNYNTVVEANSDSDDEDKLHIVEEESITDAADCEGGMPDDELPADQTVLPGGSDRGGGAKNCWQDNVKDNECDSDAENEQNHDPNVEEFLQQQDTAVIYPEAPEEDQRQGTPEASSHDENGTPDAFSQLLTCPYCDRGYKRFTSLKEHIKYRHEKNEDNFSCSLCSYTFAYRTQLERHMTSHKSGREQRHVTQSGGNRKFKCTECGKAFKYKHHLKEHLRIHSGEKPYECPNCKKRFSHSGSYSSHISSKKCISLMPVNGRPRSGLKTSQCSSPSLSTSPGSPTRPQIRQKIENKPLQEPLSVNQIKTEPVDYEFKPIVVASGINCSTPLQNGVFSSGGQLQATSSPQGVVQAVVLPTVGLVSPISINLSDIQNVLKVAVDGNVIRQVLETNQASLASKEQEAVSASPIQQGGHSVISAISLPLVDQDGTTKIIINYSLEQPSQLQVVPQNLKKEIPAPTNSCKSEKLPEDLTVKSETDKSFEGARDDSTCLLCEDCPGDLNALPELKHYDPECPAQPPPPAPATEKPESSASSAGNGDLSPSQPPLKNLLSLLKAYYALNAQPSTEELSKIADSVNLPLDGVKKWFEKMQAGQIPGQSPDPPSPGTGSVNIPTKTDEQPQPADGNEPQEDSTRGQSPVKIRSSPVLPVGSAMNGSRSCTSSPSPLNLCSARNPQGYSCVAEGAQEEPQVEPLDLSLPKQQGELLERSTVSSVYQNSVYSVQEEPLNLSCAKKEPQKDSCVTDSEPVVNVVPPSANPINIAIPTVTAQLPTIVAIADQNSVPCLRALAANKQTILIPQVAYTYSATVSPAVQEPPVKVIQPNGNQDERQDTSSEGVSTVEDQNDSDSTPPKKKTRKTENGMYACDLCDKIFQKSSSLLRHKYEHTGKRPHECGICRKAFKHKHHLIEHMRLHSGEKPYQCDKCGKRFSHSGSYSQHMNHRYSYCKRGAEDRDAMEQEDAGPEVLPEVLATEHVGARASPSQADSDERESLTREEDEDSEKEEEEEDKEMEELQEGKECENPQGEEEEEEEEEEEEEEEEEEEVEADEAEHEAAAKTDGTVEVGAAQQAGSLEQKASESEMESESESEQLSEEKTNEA

B1: ATF2 (protein, UniProt P16951 1-487)
chain: MSDDKPFLCTAPGCGQRFTNEDHLAVHKHKHEMTLKFGPARNDSVIVADQTPTPTRFLKNCEEVGLFNELASPFENEFKKASEDDIKKMPLDLSPLATPIIRSKIEEPSVVETTHQDSPLPHPESTTSDEKEVPLAQTAQPTSAIVRPASLQVPNVLLTSSDSSVIIQQAVPSPTSSTVITQAPSSNRPIVPVPGPFPLLLHLPNGQTMPVAIPASITSSNVHVPAAVPLVRPVTMVPSVPGIPGPSSPQPVQSEAKMRLKAALTQQHPPVTNGDTVKGHGSGLVRTQSEESRPQSLQQPATSTTETPASPAHTTPQTQNTSGRRRRAANEDPDEKRRKFLERNRAAASRCRQKRKVWVQSLEKKAEDLSSLNGQLQSEVTLLRNEVAQLKQLLLAHKDCPVTAMQKKSGYHTADKDDSSEDLSVPSSPHTEAIQHSSVSTSNGVSSTSKAEAVATSVLTQMADQSTEPALSQIVMAPPSQAQPSGS
B2: ATF7 (protein, UniProt Q8R0S1 1-413)
chain: MGDDRPFVCSAPGCGQRFTNEDHLAVHKHKHEMTLKFGPARTDSVIIADQTPTPTRFLKNCEEVGLFNELASSFEHEFKKASDDDEKKGAAGPLDMSLPSTPDIKIKEEEPVEVDSSPPDSPASSPCSPPLKEKEVTTKPVVISTPTPTIVRPGSLPLHLGYDPLHPTLPSPTSVITQAPPSNRQIGSPTGSLPLVMHLANGQTMPMLPGPPVQMPSVISLARPVSMVPNIPGIPGPPVNNSGSISPSGHPMPSEAKMRLKATLTHQVSSINGGCGMVVGTASTMVTARPEQNQILIQHPDAPSPAQPQVSPAQPTPSTGGRRRRTVDEDPDERRQRFLERNRAAASRCRQKRKLWVSSLEKKAEELTSQNIQLSNEVTLLRNEVAQLKQLLLAHKDCPVTALQKKTQGYLGK

Molecular target: T1, ZEB1-HA (mouse)
Experiment: affinity purification with mass spectrometry; anti-HA antibody on protein-A sepharose beads; lysate of 3T3-L1 cells stably overexpressing ZEB1 (doxycycline from day -2, harvested at day 0), control vector cells alongside; IP buffer 20 mM Tris-Cl pH 7.4, 150 mM NaCl, 10% glycerol, 1% Triton X-100, 1 mM EDTA, 1 mM DTT; 4 hr at 4°C, 5 washes; SDS-PAGE, in-gel trypsin digestion, LC-MS/MS; two replicate experiments

binding, binds:
CCAAT/enhancer binding protein beta (C/EBPβ) (from UniProt P28033 1-296)
CtBP2 (from UniProt P56546 1-445)
RUNX2 (from UniProt Q08775 1-607)
B1
B2
